At least one structure is not confirmed: it was looked up by name or label, or the drawing left a doubt. No end group written: not given here.
Test system: endogenous bradykinin receptor
Experiment: Bradykinin-induced calcium flux in α7/5-HT3-SH-EP1 cells
Type: cell-based, human
Details: 100 nM bradykinin, release from intracellular stores

## RPPGFSPFR [bradykinin]
  Increase in intracellular calcium: produces a maximal increase in intracellular calcium

Reference: patent publication US7247706B2, “Double mutant alpha-7 nicotinic acetylcholine receptors” (Pharmacia & Upjohn Company, priority 1999, dated 2007)
